Data as given in PMC5031922.
Residue numbers refer to the chain shown, from its start. Results are given in words; binding and its absence hold for the method and conditions named. Binding seen in cells or lysates may run through a third protein. These calls come from enrichment with a bait or labelling near it, and not all partners need be listed. For part of these data: No binding means not detected with the bait. Tags and fused reporters may be left off the sequences shown.

By UniProt entry, the sequences of proteins in these tests, tags left out.
UniProt Q96KQ7: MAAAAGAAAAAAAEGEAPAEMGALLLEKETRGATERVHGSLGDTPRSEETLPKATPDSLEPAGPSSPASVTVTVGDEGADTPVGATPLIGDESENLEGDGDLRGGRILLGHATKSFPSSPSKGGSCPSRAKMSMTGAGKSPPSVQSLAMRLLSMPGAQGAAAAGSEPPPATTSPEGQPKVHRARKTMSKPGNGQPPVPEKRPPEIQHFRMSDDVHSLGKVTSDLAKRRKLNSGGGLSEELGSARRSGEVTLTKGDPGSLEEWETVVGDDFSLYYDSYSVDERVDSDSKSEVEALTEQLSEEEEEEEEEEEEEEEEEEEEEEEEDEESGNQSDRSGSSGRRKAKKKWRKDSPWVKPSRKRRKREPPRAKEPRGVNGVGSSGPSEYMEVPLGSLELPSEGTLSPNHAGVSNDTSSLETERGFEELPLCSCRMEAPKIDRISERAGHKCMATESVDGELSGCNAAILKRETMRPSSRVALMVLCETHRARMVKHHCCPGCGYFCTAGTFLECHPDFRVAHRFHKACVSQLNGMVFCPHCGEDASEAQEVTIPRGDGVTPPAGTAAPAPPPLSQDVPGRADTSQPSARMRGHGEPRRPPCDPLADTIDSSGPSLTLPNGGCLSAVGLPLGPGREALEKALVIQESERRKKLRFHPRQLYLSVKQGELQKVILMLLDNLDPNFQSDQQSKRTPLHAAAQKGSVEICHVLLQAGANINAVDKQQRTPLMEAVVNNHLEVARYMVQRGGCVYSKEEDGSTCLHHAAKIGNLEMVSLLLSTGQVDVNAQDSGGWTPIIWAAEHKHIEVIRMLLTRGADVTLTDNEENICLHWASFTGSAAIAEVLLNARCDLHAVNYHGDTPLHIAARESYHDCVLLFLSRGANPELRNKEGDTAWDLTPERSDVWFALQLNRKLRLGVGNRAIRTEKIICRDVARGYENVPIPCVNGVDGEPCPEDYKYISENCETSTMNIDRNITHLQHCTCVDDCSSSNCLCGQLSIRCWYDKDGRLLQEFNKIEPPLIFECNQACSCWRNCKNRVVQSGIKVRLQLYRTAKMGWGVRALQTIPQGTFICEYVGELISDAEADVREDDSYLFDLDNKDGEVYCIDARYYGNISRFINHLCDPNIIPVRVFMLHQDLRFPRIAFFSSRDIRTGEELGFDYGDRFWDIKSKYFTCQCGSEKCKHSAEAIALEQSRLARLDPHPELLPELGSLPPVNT
UniProt Q9H9B1: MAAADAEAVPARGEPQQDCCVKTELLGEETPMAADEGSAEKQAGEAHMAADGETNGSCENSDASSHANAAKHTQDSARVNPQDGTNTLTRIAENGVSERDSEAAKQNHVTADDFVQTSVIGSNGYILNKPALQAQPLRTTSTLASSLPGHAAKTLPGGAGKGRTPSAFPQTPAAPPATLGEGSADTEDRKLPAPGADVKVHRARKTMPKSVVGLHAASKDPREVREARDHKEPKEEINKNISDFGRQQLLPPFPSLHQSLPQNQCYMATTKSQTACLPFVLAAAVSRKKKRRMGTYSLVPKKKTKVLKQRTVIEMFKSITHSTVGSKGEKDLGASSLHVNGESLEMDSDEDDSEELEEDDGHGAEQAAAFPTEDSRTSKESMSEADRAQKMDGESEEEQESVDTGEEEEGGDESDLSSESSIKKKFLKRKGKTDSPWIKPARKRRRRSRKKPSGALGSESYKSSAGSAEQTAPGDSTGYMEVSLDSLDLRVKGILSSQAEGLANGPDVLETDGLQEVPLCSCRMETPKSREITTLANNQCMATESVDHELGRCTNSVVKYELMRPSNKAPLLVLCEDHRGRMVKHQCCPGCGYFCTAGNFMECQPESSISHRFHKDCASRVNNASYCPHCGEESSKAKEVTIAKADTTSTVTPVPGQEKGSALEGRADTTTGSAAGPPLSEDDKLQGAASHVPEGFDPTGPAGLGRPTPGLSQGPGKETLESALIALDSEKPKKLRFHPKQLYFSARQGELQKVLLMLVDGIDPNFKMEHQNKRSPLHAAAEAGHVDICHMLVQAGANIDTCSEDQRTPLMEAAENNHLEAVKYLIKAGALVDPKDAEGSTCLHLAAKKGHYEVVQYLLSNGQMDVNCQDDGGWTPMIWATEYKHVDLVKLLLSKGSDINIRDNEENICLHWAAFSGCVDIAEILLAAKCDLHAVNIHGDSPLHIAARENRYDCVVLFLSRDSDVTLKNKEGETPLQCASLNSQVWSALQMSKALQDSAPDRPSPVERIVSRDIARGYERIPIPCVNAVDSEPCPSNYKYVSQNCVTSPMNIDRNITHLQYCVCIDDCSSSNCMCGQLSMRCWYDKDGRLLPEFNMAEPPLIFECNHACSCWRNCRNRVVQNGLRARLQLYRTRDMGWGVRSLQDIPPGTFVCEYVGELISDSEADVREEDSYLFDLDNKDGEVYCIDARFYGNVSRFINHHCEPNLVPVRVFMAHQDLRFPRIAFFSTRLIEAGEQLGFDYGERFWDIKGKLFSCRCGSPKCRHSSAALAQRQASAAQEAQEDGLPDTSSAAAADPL
UniProt O95785: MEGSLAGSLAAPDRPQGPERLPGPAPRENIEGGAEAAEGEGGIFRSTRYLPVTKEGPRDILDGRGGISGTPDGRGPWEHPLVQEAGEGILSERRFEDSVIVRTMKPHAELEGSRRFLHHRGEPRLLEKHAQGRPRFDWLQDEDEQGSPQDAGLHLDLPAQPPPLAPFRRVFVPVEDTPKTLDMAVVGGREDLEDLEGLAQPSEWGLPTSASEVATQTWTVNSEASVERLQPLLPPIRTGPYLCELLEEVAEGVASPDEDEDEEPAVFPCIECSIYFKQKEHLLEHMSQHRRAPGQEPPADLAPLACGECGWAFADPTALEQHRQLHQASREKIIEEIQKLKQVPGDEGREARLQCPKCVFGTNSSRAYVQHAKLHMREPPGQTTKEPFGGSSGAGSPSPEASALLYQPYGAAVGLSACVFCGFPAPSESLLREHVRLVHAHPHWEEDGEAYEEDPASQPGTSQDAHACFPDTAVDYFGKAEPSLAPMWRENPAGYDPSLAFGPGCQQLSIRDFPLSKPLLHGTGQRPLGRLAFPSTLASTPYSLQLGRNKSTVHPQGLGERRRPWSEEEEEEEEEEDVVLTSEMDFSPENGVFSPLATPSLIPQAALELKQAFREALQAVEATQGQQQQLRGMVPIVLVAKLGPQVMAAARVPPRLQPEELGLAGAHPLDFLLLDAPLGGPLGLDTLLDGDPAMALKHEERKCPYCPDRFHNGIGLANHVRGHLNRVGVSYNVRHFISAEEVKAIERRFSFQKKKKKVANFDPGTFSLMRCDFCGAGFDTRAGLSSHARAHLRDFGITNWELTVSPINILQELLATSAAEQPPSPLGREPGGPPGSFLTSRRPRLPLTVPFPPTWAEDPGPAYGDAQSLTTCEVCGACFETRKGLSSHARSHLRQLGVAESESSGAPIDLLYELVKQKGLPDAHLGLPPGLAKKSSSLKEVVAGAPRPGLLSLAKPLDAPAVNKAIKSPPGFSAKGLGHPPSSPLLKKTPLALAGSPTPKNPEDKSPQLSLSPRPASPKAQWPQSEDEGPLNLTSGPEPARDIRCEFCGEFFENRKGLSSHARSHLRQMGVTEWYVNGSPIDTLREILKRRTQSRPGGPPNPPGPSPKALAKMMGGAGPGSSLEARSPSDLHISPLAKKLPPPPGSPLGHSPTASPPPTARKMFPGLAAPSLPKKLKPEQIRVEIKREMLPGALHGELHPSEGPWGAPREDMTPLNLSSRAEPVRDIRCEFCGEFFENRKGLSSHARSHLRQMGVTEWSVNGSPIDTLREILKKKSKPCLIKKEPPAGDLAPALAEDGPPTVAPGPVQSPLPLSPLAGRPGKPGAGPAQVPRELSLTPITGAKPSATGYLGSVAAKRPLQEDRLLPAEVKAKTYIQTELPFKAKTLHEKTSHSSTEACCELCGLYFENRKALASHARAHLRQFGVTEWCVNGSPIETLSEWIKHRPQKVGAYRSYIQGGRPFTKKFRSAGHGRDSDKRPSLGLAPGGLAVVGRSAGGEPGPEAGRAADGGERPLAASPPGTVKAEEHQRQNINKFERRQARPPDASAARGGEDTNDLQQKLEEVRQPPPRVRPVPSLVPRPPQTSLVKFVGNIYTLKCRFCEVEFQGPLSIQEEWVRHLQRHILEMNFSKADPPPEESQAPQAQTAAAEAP

Legend:
[1] = target: T1, GFP-tagged full-length ZNF644 C1263A (human) (UniProt Q9H582); assay: affinity purification with mass spectrometry; GFP-tagged bait in Flp-In T-Rex HEK293, induced with 1 ug/ml doxycycline for 24 hr; purified with rabbit anti-GFP antibody
T1 sequence: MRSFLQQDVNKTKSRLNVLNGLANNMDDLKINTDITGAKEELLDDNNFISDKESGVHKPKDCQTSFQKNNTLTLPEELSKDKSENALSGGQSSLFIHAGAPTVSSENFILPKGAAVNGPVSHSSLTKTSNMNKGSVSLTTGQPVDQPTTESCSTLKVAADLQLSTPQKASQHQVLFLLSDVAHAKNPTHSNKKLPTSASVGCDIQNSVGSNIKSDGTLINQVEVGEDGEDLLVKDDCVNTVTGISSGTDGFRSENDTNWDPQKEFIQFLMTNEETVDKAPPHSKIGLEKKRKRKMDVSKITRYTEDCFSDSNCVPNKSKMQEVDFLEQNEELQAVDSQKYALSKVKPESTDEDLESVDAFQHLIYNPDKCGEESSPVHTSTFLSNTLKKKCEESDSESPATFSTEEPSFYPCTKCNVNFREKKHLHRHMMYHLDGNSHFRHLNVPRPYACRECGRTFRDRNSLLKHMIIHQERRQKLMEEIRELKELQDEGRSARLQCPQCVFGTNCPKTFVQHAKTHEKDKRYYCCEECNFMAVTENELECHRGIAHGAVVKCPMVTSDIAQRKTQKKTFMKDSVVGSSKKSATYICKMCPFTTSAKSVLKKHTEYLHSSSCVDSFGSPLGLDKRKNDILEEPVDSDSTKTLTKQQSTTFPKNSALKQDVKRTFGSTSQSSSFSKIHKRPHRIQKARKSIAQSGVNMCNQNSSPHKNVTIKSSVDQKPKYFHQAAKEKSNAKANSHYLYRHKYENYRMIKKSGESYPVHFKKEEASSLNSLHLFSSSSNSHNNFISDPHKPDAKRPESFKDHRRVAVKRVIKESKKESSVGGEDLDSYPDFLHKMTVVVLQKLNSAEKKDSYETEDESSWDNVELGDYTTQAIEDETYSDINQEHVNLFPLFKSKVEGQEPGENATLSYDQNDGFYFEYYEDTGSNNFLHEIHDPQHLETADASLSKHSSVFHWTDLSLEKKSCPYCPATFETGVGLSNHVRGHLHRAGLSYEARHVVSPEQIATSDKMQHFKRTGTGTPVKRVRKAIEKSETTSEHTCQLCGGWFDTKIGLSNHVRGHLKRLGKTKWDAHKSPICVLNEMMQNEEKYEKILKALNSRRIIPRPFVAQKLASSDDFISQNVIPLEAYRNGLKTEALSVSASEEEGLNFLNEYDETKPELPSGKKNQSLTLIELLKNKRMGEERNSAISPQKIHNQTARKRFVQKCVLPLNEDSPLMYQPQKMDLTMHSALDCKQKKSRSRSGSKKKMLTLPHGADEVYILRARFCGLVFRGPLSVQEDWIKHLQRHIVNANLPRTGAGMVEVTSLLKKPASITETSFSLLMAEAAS

[2] = target: T2, GFP-tagged full-length WT ZNF644 (human) (UniProt Q9H582); assay: as above
T2 sequence: T1 sequence with A1263C

binding [1]	binding [2]	Substance
no binding	binds	G9a (endogenous) (from UniProt Q96KQ7 1-1210) (enzyme)
no binding	binds	GLP (from UniProt Q9H9B1 1-1298) (enzyme)
no binding	binds	WIZ (from UniProt O95785 1-1651)
